One substance from publication doi:10.1101/2023.08.16.553481 can be followed below.

Results are given in words; binding and its absence hold for the method and conditions named. Binding seen in cells or lysates may run through a third protein. Binding calls can cover weak binding; strength is not graded here. Sequences can lack the tags named with a protein.

The assay has as its target T1, zTie2-Fc-His (immunoglobulin Fc-domain tagged soluble extracellular domain of zebrafish Tie2) (zebrafish) (UniProt O73791).
T1 sequence: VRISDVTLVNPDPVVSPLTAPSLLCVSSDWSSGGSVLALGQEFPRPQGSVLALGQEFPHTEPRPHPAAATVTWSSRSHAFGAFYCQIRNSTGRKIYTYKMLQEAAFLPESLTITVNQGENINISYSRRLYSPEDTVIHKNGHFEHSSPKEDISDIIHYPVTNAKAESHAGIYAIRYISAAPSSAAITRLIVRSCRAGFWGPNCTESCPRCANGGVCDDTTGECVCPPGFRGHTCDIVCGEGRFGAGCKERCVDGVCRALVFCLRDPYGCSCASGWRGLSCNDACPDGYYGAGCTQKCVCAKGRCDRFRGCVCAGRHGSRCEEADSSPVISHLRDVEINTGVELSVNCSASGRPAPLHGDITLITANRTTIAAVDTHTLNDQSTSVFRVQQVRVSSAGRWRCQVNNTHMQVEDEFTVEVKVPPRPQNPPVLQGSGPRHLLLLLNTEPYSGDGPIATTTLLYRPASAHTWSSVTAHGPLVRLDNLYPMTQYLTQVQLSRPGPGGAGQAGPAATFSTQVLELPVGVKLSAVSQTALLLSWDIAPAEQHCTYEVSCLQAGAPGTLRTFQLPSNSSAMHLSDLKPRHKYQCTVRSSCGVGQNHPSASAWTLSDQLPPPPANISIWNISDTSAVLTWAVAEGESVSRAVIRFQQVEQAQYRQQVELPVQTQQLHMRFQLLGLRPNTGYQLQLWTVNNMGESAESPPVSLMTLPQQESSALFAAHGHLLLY
Put plainly: pull-down.

For the substance “FLAG-zAngpt2a (zebrafish Angpt2a without signal sequence) (ligand)”, the binding result is listed as “binds”.
